We go through 42 sequences from PMC7819943, “Rice protein-binding microarrays: a tool to detect cis-acting elements near promoter regions in rice”.

Sequences of proteins named here, by UniProt entry; tags and fusion partners are left off.
UniProt Q0JBA9, entry or part of it: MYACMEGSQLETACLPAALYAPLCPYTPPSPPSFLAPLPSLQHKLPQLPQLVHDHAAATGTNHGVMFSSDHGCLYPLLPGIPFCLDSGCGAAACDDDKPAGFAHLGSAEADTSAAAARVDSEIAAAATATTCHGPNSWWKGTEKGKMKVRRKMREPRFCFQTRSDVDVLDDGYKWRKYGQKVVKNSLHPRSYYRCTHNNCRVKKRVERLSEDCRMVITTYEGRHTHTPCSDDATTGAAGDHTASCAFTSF

This is one part of the list.

The assay deals with OsWRKY34 (Oryza sativa, UniProt Q0JBA9 1-250). Put plainly: protein-binding microarray (RPBM); PBS, 2% BSA, 51.3 ng/ul salmon testes DNA, 50 uM zinc acetate, 200 nM TF, 25 C, 1 h; high values mean tight binding. The note with it: protein: recombinant; tags: N-terminal polyhistidine and DsRed monomer fusion (pET32a); label: CyDye5-dUTP incorporated in the synthesized complementary strand; 3' TTTTT single-stranded linker to array surface; dsDNA, one strand shown. An outline of the steps:
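Polyhistidine-tagged DsRed fusions of transcription factors, joined at the N-terminus, were expressed in E. coli BL21-CodonPlus and isolated on Ni–NTA. They were incubated at 200 nM for 1 h at 25 °C on a custom Agilent array, double-stranded and BSA-blocked, in PBS with 2% BSA, salmon testes DNA and 50 µM zinc acetate. The binding signal is per-feature fluorescence intensity (arbitrary units) read on an Axon 4000B scanner after washing.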
For the sequence “TAGCAGTGGTCTCCGTTTACATGTCCTTATAACTCATCTACGGAGTCACCTAGTGCAG”, the binding signal was 8410 fluorescence intensity (a.u.).
In the case of “GTGTTCGTTTTGGATTTTGGTTTCAGTTTAGTATATGCACCGGAGTCACCTAGTGCAG”, the binding signal is 11300 fluorescence intensity (a.u.).
On to “CTTTCCTACTTAACTCTTTATGTTACTCCGTATTCTGTTTCGGAGTCACCTAGTGCAG”, for which the binding signal is 12600 fluorescence intensity (a.u.).
Consider “CGTCCGGCCGCGAAACCGAGCCTTCTGACCACCGCCGAAACGGAGTCACCTAGTGCAG”, for which the binding signal is 8050 fluorescence intensity (a.u.).
Then “AAGAACACAACACACTTGATATATATACCTCACACACACTCGGAGTCACCTAGTGCAG”, with 8060 fluorescence intensity (a.u.).
For “TCCTACACCACCCCGTTCTCGCGCCCATCGATCCAACCGACGGAGTCACCTAGTGCAG”, the binding signal is 8920 fluorescence intensity (a.u.).
Then “TTGGGTATTATGTATGGTGTTACATAGGGTGTTTGGGCACCGGAGTCACCTAGTGCAG”, with 10900 fluorescence intensity (a.u.).
Then “CTTCGCCCTGACTCTTGCGGTTTGTTCCACTTTGAACTTTCGGAGTCACCTAGTGCAG”, with 9380 fluorescence intensity (a.u.).
“GACACCCTATATAATACCTGATGTGATACGCCAACACTTTCGGAGTCACCTAGTGCAG”: the binding signal was 8920 fluorescence intensity (a.u.).
Regarding “ATACGCATCACTGGATATCTTTCACATCACTTTAAGCATACGGAGTCACCTAGTGCAG”, the binding signal is 9450 fluorescence intensity (a.u.).
Regarding “TTTCAGATCATGGTTTGGTTTGGTAGGGTTTGTGCACTGTCGGAGTCACCTAGTGCAG”, the binding signal was 11100 fluorescence intensity (a.u.).
The same measure for “CAAATATACACGGTGTTACTGGATCTCCCGGCCCTACAGACGGAGTCACCTAGTGCAG”: 8110 fluorescence intensity (a.u.); for “AACCGCTTTTTTTTCATTTTCTCTTATTTTTGTGTATTATCGGAGTCACCTAGTGCAG”: 10700 fluorescence intensity (a.u.); for “TATGGACTGTTTTGTTTTGTTCCCCTAGCTAGAATTATTCCGGAGTCACCTAGTGCAG”: 9880 fluorescence intensity (a.u.).
The same measure for “TTTCTATTCCTCTGTTTTTCTATTCTTGTGATTCAAAGGGCGGAGTCACCTAGTGCAG”: 8840 fluorescence intensity (a.u.); for “GAGTTTAACTTTGATAATTGTTCTCGTTTTTTCTAAACTCCGGAGTCACCTAGTGCAG”: 8140 fluorescence intensity (a.u.); for “GCTCAACTGTACGATGTTTTTATTGAACTTATCTATACCCCGGAGTCACCTAGTGCAG”: 9560 fluorescence intensity (a.u.).
For the sequence “CACCTAGCAGTTTTCTGAAATGCCCAACTACCGTTCTCGTCGGAGTCACCTAGTGCAG”, the binding signal is 8930 fluorescence intensity (a.u.).
Regarding “TCAAGATGCATGTATCTATCCTGTACAAGTGAACAGCTCACGGAGTCACCTAGTGCAG”, the binding signal was 8250 fluorescence intensity (a.u.).
Then “CCCACGTCACGCCCACACACACGCTGGCCCTCTCAACGGCCGGAGTCACCTAGTGCAG”, with 8580 fluorescence intensity (a.u.); and “CCCACACCTCCACTCCACTCCACGCCATTTTTTCGCTCGCCGGAGTCACCTAGTGCAG”, with 9440 fluorescence intensity (a.u.).
Turning to “GTTGACATCTTGTTTTTTGGTTCGTTTGCCATGGTAGTTTCGGAGTCACCTAGTGCAG”, the binding signal was 8220 fluorescence intensity (a.u.).
The same measure for “CCACCAACCTGCATCCTGGCCCAATCACGTCCCACCGAATCGGAGTCACCTAGTGCAG”: 9700 fluorescence intensity (a.u.).
With “ACATGTCAGCCGCGATCCAGTTCTAGCCCAACAACTATGGCGGAGTCACCTAGTGCAG”, the binding signal is 8340 fluorescence intensity (a.u.).
Then “ATTTCACCGTCACCGCCTCATTCTTTCCGATCCTCCGCGCCGGAGTCACCTAGTGCAG”, with 9500 fluorescence intensity (a.u.).
For “TCCCGCTGCTGTGTGCGTGTGCGTGCCGAGGGAGGGAGGGCGGAGTCACCTAGTGCAG”, the binding signal is 9550 fluorescence intensity (a.u.).
In the case of “GGGCCACCGCGAACAACTGATCTCCTCCGAACCCTCTGCACGGAGTCACCTAGTGCAG”, the binding signal was 8230 fluorescence intensity (a.u.).
Then “GTGCCTGAACTAGCATAATCACTGTGTCACCATCTTTCCTCGGAGTCACCTAGTGCAG”, with 8060 fluorescence intensity (a.u.); and “AATCGTACCCATTGGATCCAGATATCCAACGCTTCAGAATCGGAGTCACCTAGTGCAG”, with 8040 fluorescence intensity (a.u.).
The same measure for “ATCATCCAGCACAATCAAACATTTGCTATCTTCAATCTTTCGGAGTCACCTAGTGCAG”: 9340 fluorescence intensity (a.u.).
The same measure for “AACCTCGCCCTCGTCCGCGTACACCGGCGCAGCCTGAGACCGGAGTCACCTAGTGCAG”: 8900 fluorescence intensity (a.u.); for “ATTGGATCGGATCAGATCCCTTTTGCGCACCACTCGCCTTCGGAGTCACCTAGTGCAG”: 8750 fluorescence intensity (a.u.); for “CCCTGAAGCAATTTTGTTCGCTGTGCAGATGTGCTACCATCGGAGTCACCTAGTGCAG”: 8050 fluorescence intensity (a.u.).
Consider “AGCTAACAAAATGCCCACTTGTGCATACATTCTTTCTTTTCGGAGTCACCTAGTGCAG”, for which the binding signal was 8670 fluorescence intensity (a.u.).
Then “CTGTCCTTCTATGTGATTTATCTTACCTTTTGCTCATTACCGGAGTCACCTAGTGCAG”, with 10400 fluorescence intensity (a.u.); and “TCTCTCTTCACGGGAGGGCAGTGTGGTTTTGGTCGGATTCCGGAGTCACCTAGTGCAG”, with 8630 fluorescence intensity (a.u.).
The same measure for “TCTTCGAAGATGCTCATAGGGGTAGGGTTTGCGTGCGTGTCGGAGTCACCTAGTGCAG”: 9040 fluorescence intensity (a.u.); for “CCATCTCAACCCATTTGCACCCACGTCGCCGTGCATCCGCCGGAGTCACCTAGTGCAG”: 8510 fluorescence intensity (a.u.).
On to “GGTATTTGTCTTTCACCTTGAGTCAGCCCCAATTTCCAATCGGAGTCACCTAGTGCAG”, for which the binding signal is 9270 fluorescence intensity (a.u.).
Then “CAGACCGTACAATTTACGAGTACTTCACTGTTTCCTTTCTCGGAGTCACCTAGTGCAG”, with 11800 fluorescence intensity (a.u.).
The same measure for “GGAATGGGGACTTACAGGGTTTTGCAATTTATTGGGTTTACGGAGTCACCTAGTGCAG”: 8210 fluorescence intensity (a.u.).
The same measure for “CACAGGGCATGAATTGATGAATAGGATGGCCATTTTTTTTCGGAGTCACCTAGTGCAG”: 65000 fluorescence intensity (a.u.).
